# Reference: patent US20030100503A1 (PROLIFIA, published 2003)
# B1: murine Mts1 mutant 4S (all four cysteines at positions 76, 81, 86 and 93 changed to serines) (other)
# chain: MARPLEEALDVIVSTFHKYSGKEGDKFKLNKTELKELLTRELPSFLGKRTDEAAFQKVMSNLDSNRDNEVDFQEYSVFLSSIAMMSNEFFEGSPDKEPRKK
# notes: also called Mts1-4S; 4S mutant; not shown: His6 tag from the pQE30 expression vector
# Target: the molecule itself
# Assay: yeast two-hybrid, self-association
protein,measurement,value
B1,binding result,binds
